From PMC10341463
These are yes or no findings as the source states them, for the method shown. In cells and extracts the contact can be indirect. Some results given as binding are weak or reduced against the parent protein; the word gives no strength.

Chains of the proteins cited; added tags and fusions are not shown.
UniProt Q09472: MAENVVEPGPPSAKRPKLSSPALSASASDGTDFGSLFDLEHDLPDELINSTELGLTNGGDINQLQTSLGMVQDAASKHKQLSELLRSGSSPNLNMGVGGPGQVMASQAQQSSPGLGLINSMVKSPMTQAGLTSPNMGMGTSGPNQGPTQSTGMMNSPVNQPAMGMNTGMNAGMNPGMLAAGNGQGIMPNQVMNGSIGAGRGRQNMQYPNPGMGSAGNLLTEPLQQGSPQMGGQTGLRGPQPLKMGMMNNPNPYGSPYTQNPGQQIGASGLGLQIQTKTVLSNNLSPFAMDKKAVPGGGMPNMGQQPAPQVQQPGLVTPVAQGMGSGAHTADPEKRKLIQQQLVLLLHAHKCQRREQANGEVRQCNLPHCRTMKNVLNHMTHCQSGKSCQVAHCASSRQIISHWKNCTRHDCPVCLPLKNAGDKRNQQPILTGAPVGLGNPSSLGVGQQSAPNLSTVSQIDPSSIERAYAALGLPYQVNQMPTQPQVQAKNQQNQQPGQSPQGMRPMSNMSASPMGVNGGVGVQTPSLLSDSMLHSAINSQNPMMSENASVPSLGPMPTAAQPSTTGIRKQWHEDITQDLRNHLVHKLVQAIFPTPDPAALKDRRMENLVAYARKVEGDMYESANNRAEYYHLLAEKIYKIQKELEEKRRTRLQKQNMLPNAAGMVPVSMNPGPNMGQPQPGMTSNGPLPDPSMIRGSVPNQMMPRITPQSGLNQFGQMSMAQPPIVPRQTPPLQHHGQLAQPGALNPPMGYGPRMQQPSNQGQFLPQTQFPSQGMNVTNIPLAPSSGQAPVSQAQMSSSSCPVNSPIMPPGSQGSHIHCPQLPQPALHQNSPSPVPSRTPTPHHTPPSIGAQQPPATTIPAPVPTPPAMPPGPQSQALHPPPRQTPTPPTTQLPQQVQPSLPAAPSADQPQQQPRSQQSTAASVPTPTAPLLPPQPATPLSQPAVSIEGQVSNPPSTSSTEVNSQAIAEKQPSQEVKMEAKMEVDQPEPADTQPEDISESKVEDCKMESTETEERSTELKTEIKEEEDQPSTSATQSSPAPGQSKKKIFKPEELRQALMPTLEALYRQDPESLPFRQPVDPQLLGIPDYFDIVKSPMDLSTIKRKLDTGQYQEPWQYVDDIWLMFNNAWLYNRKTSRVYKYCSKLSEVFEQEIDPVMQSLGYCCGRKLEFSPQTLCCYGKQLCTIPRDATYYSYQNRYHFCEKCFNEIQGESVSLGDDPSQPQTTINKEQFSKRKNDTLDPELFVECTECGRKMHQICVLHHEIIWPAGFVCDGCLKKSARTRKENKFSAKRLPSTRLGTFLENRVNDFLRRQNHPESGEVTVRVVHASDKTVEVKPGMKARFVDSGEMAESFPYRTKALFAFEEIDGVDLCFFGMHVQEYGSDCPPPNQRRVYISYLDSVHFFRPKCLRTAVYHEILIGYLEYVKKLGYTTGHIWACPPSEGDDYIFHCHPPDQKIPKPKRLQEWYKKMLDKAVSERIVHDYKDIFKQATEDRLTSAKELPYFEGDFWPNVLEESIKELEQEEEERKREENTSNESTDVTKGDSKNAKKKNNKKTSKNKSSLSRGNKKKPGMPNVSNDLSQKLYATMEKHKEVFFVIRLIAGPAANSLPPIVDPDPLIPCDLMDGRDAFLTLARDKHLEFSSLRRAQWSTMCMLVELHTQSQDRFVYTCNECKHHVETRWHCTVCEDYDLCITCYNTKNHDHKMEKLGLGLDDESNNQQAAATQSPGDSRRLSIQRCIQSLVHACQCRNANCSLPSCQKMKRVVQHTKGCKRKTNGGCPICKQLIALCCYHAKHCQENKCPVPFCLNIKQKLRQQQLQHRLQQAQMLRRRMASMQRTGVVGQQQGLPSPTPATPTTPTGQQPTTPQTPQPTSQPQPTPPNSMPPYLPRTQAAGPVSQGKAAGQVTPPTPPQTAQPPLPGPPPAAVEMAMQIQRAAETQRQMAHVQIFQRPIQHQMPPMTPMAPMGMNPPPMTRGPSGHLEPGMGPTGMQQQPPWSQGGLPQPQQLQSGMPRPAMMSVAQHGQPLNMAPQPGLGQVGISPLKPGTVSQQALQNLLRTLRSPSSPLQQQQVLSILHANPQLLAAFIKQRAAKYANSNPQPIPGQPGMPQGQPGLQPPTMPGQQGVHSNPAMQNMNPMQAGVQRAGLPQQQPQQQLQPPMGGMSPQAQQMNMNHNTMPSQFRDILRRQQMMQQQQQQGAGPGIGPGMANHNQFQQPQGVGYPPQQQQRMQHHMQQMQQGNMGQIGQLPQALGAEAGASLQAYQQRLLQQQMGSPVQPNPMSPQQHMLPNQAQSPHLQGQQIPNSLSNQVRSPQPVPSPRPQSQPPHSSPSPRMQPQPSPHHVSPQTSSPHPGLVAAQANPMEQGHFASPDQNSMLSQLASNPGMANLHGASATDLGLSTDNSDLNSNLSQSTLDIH
UniProt P40763: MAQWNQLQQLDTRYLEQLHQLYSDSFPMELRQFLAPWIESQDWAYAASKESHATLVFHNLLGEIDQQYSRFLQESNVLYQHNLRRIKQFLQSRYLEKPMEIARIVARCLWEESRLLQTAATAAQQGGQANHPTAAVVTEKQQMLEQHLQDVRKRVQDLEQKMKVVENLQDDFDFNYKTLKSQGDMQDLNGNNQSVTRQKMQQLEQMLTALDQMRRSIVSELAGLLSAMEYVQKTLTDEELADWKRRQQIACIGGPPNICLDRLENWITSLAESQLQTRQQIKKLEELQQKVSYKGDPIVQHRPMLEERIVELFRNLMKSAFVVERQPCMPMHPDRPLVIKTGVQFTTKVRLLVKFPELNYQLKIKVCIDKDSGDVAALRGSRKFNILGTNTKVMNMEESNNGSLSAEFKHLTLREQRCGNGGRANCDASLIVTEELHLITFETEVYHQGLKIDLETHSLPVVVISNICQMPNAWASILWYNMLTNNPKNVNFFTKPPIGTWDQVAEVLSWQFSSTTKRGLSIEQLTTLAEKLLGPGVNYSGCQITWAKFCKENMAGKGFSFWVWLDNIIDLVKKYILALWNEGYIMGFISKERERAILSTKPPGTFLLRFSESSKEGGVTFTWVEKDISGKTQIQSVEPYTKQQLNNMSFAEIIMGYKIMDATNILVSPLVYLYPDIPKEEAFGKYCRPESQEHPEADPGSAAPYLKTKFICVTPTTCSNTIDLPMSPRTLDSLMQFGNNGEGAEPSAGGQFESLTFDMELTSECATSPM

Target: p300 (human (endogenous in amnion fibroblasts)) (UniProt Q09472)
Assay: co-IP; 10 ug nuclear protein of human amnion fibroblasts treated with or without cortisol (1 uM; 12 h); precipitated with rabbit antibody against p300 overnight at 4 C, protein A agarose beads; STAT3, GR and CREB detected by Western blotting; pre-immune IgG as negative control

binding: binds
Substance: signal transducer and activator of transcription 3 (from UniProt P40763 1-770)
